Assay results reported in US11028364B2, “Compositions and methods for modulating an immune response” (President and Fellows of Harvard College, priority 2015, dated 2021).
At least one structure is not confirmed: it was looked up by name or label, or the drawing left a doubt.

Tested on: B cells cultured with TFH cells
Assay: in vitro cultures of B and TFH cells (activated culture) with addition of pathway/metabolic inhibitors
Format: cell-based, mice
Settings: inhibitor added to activated culture (B + TFH), anti-CD3/IgM
Method: To determine the mechanisms of how TFH and B cells are altered during direct TFR suppression, an in vitro suppression assay in which TFR cells are cultured with TFH and B cells was utilized. See e.g., Sage et al., J Clin Invest 124, 5191-5204 (2014); Sage et al., Immunity 41, 1026-1039 (2014); Sage et al., Methods Mol Biol 1291, 151-160 (2015). For these assays, FoxP3IRES-GFP mice were immunized with NP-OVA (emulsified in CFA) subcutaneously and isolated draining lymph nodes 7 days later. TFR (sorted as CD4+ICOS+CXCR5+CD19− FoxP3+) cells were added to co-cultures of B (sorted as CD19+) and TFH (sorted as CD4+ICOS+CXCR5+CD19−FoxP3) cells along with anti-CD3 and anti-IgM for 2 to 6 days (FIG. 1A, FIG. 36A, and FIG. 36B).
To determine if suppressing Myc in activated B cells could recapitulate TFR suppression, in vitro suppression assays were performed in which B cells were cultured with TFH cells, TFH and TFR cells, or TFH cells and the Myc inhibitor 10058-F4 (F4w).
The mTOR pathway promotes protein synthesis during activation and has been linked to enhancing cellular metabolism. […] In vitro cultures of B and TFH cells were performed along with either the mTORc1 inhibitor rapamycin or TFR cells. […] Akt can act both upstream and downstream of mTOR to mediate activation signaling. […]
Therefore, whether inhibitors of purine metabolism could recapitulate TFR suppression in vitro was determined.

CO[C@H]1C[C@@H]2CC[C@@H](C)[C@@](O)(O2)C(=O)C(=O)N2CCCC[C@H]2C(=O)O[C@H]([C@H](C)C[C@@H]2CC[C@@H](O)[C@H](OC)C2)CC(=O)[C@H](C)/C=C(\C)[C@@H](O)[C@@H](OC)C(=O)[C@H](C)C[C@H](C)/C=C/C=C/C=C/1C [rapamycin]
class switch recombination (IgG1+GL7+ B cells): severely diminished
secreted antibody / antibody production in culture supernatants: severely diminished
